This assay deals with BDF1 mice, P388 leukemia ip, median survival T/C. Briefly: NCI In Vivo Anticancer Drug Screen. Data for tumor model P388 Leukemia (intraperitoneal) in B6D2F1 (BDF1) mice. The following applies: T/C endpoint: median survival time, higher T/C = longer survival. In a few lines:
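Reported as T/C, where T is the survival measurement in dosed animals and C the same measurement in vehicle controls.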

The mark [1] stands for this setting: dose: 0.5 mg/kg/injection, schedule: Q01DX009 (ip), vehicle: saline.
Setting [2] is: dose: 4.0 mg/kg/injection, schedule: Q01DX009 (ip), vehicle: saline.
The mark [3] stands for this setting: dose: 8.0 mg/kg/injection, schedule: Q01DX009 (ip), vehicle: saline.
[4] abbreviates: dose: 400.0 mg/kg/injection, schedule: Q01DX009 (ip), vehicle: saline.
The mark [5] stands for this setting: dose: 200.0 mg/kg/injection, schedule: Q01DX009 (ip), vehicle: saline.

The list does not hold the whole screen: it gathers tests that were run many times, whatever their T/C, doses with no T/C, and many T/C values between a quarter and a half above the control. Further doses and runs are listed elsewhere. T/C: endpoint of the treated group in % of that of the vehicle group. Some doses have a count of surviving animals in place of a T/C: the source holds a T/C of zero for them, seemingly a mark for toxic or unscored doses. Some survivor counts are full or nearly so, which does not show that the dose was tolerated: the source hardly ever lists a survival T/C far under the control, and the zero likely stands for such cases as well. Counts of survivors are from the toxicity check (mostly the fifth day) where no day follows; animals may have died later. Schedules are NCI's codes, read here as Q, the interval in days (D) or hours (H), X, the number of doses. Some doses were run more than once; their values stand side by side, smallest first. Where survival is the endpoint, the PubChem record calls one and a half times the control and up active, and a quarter to a half above the control has no call in these data; cut-offs in other NCI protocols can differ. Some T/C values are followed by the survivors on the day toxicity was checked, most often the fifth; without a count, all were alive then.

Take `COc1ccc2nc3cc(Cl)ccc3c(NC(C)CCCN(CCCl)CCCl)c2c1` (stereo not given): the T/C (dose: 0.2 mg/kg/injection, schedule: Q04DX003 (ip), vehicle: saline) is 136 % of control; the T/C (dose: 0.26 mg/kg/injection, schedule: Q04DX003 (ip), vehicle: saline) was 130 % of control; the T/C (dose: 0.4 mg/kg/injection, schedule: Q01DX009 (ip), vehicle: saline) was 136 % of control; the T/C (dose: 0.4 mg/kg/injection, schedule: Q04DX003 (ip), vehicle: saline) was 133 and 145 % of control; the T/C under setting [1] is 145 % of control; the T/C (dose: 0.62 mg/kg/injection, schedule: Q04DX003 (ip), vehicle: saline) is listed as 133, 136, 140 % of control. For the same compound, the T/C reads like this: (dose: 0.93 mg/kg/injection, schedule: Q04DX003 (ip), vehicle: saline) 141 and 145 % of control; (dose: 1.25 mg/kg/injection, schedule: Q04DX003 (ip), vehicle: saline) 136 % of control; (dose: 250.0 micrograms/kg/injection, schedule: Q01DX009 (ip), vehicle: saline) 127 % of control; (dose: 2000.0 micrograms/kg/injection, schedule: Q01DX009 (ip), vehicle: saline) 131 % of control. In addition, the survivor count by setting is: (dose: 1.8 mg/kg/injection, schedule: Q01DX009 (ip), vehicle: saline) 4 of 6; (dose: 2.0 mg/kg/injection, schedule: Q01DX009 (ip), vehicle: saline) 6 of 6; (dose: 2.5 mg/kg/injection, schedule: Q04DX003 (ip), vehicle: saline) 6 of 6; (dose: 2.8 mg/kg/injection, schedule: Q01DX009 (ip), vehicle: saline) 2 of 6; under setting [2], 0 of 6; (dose: 4.2 mg/kg/injection, schedule: Q01DX009 (ip), vehicle: saline) 0 of 6. The survivor count runs as follows: under setting [3], 0 of 6; (dose: 16.0 mg/kg/injection, schedule: Q01DX009 (ip), vehicle: saline) 0 of 6 and 2 of 6.
On to `CS(=O)(=O)OCCC(=O)NCNC(=O)CCOS(C)(=O)=O`, for which the T/C is, setting by setting: (dose: 20.0 mg/kg/injection, schedule: Q04DX003 (ip), vehicle: Klucel (hydroxypropylcellulose) (HPC)) 131 % of control; (dose: 21.0 mg/kg/injection, schedule: Q04DX003 (ip), vehicle: Klucel (hydroxypropylcellulose) (HPC)) 130 % of control.
Regarding `CC1CN=C(c2ccc(NC(=O)Nc3ccc(C(=O)Nc4ccc(C5=NCC(C)N5)cc4)cc3)cc2)N1` (stereo not given), under “dose: 150.0 mg/kg/injection, schedule: Q04DX003 (ip), vehicle: saline with Tween-80”, the survivor count is 1 of 6.
For the compound `O=Cc1c[nH]c2nccnc12`, the survivor count reads like this: (dose: 50.0 mg/kg/injection, schedule: Q01DX009 (ip), vehicle: saline) 5 of 6; under setting [4], 4 of 6.
With `CCOC(=O)/C(=C\c1ccccc1)O/C(=C/c1ccccc1)C(=O)OCC`, the survivor count (dose: 200.0 mg/kg/injection, schedule: Q04DX002 (ip), vehicle: saline with Tween-80) is listed as 6 of 6.
For the compound `CN1CCN(C(=O)c2ccc(Cl)c(Cl)c2)CC1`, under “dose: 200.0 mg/kg/injection, schedule: Q04DX003 (ip), vehicle: saline with Tween-80”, the survivor count is reported as 0 of 6.
Consider `COc1ccc(/C=C/C(=N\O)c2ccc(OC)c(OC)c2)cc1OC`, for which, under setting [5], the survivor count is given as 5 of 6.
In the case of `CCOc1ccc(N2CC(=O)N3CCCN3C(=O)C2)cc1`, the survivor count was 4 of 5 (dose: 50.0 mg/kg/injection, schedule: Q01DX005 (ip), vehicle: saline with Tween-80) and 5 of 5 (dose: 200.0 mg/kg/injection, schedule: Q01DX005 (ip), vehicle: saline with Tween-80).
`CCCCCCCCCCCC[n+]1cccc2ccccc21`: the T/C (dose: 0.15 mg/kg/injection, schedule: Q01DX009 (ip), vehicle: saline) is 145 % of control. Moreover, the survivor count (dose: 1.4 mg/kg/injection, schedule: Q01DX009 (ip), vehicle: saline) is reported as 3 of 6.
Take `COc1cc2ccncc2cc1OCc1ccccc1`: the survivor count was 0 of 6 under setting [5] and 0 of 6 under setting [4].
For the compound `CCC(C)(OC(C)=O)C(=O)O[C@H]1C(=O)O[C@@H]2C[C@H]3C(C)=CC(=O)[C@@H](O)[C@]3(C)[C@H]3[C@@]4(O)OC[C@]32[C@@H]1[C@@H](C)[C@H]4O` (stereo not given in full), the T/C was 149 % of control under setting [1]; 142 % of control [3 of 4 alive] (dose: 0.63 mg/kg/injection, schedule: Q01DX009 (ip), vehicle: saline); 125 % of control (dose: 1.0 mg/kg/injection, schedule: Q01DX009 (ip), vehicle: saline); 142 % of control [3 of 4 alive] (dose: 2.5 mg/kg/injection, schedule: Q01DX009 (ip), vehicle: saline); 142 % of control under setting [2]. Further, under setting [3], the survivor count is 3 of 6.
With `C=C(C)C12CC(C)C34OC5(CCCCCCCC(C)C6C(C)C(OC(=O)c7ccccc7)C(O)(C(O)C7(COC(=O)CCCCCCCCCCCCCCC)OC7C3C1O5)C64)O2` (stereo not given), the T/C by setting is: (dose: 6.2 micrograms/kg/injection, schedule: Q01DX009 (ip), vehicle: saline + alcohol) 144 % of control; (dose: 40.0 micrograms/kg/injection, schedule: Q01DX009 (ip), vehicle: saline + alcohol) 128 % of control. Besides, the survivor count (dose: 100.0 micrograms/kg/injection, schedule: Q01DX009 (ip), vehicle: saline + alcohol) is 3 of 4.
With `NCCSC(c1ccccc1)c1ccccc1`, where the note is “dose: 200.0 mg/kg/injection, schedule: Q01DX009 (ip), vehicle: Klucel (hydroxypropylcellulose) (HPC)”, the survivor count is given as 2 of 6.
For the compound `NC(=S)N=Nc1ccc(O)c2c(O)ccc(O)c12`, the survivor count by setting is: (dose: 100.0 mg/kg/injection, schedule: Q01DX009 (ip), vehicle: water) 4 of 8; (dose: 200.0 mg/kg/injection, schedule: Q01DX009 (ip), vehicle: water) 0 of 8.
On to `O=C(O)/C=C\C(=O)Nc1ccccc1`, for which the survivor count (dose: 100.0 mg/kg/injection, schedule: Q01DX009 (ip), vehicle: Klucel (hydroxypropylcellulose) (HPC)) is 6 of 6.
Take `OC(CN(CCCl)CCCl)C(O)C(O)C(O)CN(CCCl)CCCl` (stereo not given): the T/C (dose: 0.09 mg/kg/injection, schedule: Q04DX003 (ip), vehicle: saline) was 141 % of control; the T/C (dose: 3.0 mg/kg/injection, schedule: Q04DX003 (ip), vehicle: saline) was 145 % of control; the T/C (dose: 90.0 micrograms/kg/injection, schedule: Q04DX003 (ip), vehicle: saline) was 133 % of control. Also, the survivor count is reported as 6 of 6 (dose: 1.5 mg/kg/injection, schedule: Q01DX009 (ip), vehicle: saline); 6 of 6 (dose: 2.25 mg/kg/injection, schedule: Q01DX009 (ip), vehicle: saline); 6 of 6 (dose: 3.0 mg/kg/injection, schedule: Q01DX009 (ip), vehicle: saline); 5 of 6 (dose: 6.0 mg/kg/injection, schedule: Q01DX009 (ip), vehicle: saline); 6 of 6 (dose: 12.5 mg/kg/injection, schedule: Q04DX003 (ip), vehicle: saline); 0 of 6 (dose: 25.0 mg/kg/injection, schedule: Q04DX003 (ip), vehicle: saline). Besides, the survivor count was 0 of 6 (dose: 50.0 mg/kg/injection, schedule: Q04DX003 (ip), vehicle: saline); 0 of 6 (dose: 100.0 mg/kg/injection, schedule: Q04DX003 (ip), vehicle: saline); 0 of 6 (dose: 200.0 mg/kg/injection, schedule: Q04DX003 (ip), vehicle: saline); 0 of 6 (dose: 400.0 mg/kg/injection, schedule: Q04DX003 (ip), vehicle: saline).
For `O=S(=O)(O)c1ccc(-c2ccc(S(=O)(=O)O)cc2)cc1` (tested in a mixture with another compound), for the setting “dose: 75.0 mg/kg/injection, schedule: Q04DX003 (ip), vehicle: saline”, the survivor count is recorded as 6 of 6.
With `CCCCN1C/C(=C\c2ccc(Br)cc2)C(=O)/C(=C/c2ccc(Br)cc2)C1`, for the setting “dose: 25.0 mg/kg/injection, schedule: Q01DX005 (ip), vehicle: saline with Tween-80”, the survivor count is 6 of 6.

The values above are taken from PubChem BioAssay AID328 (DTP/NCI, 2004).
